Measured values from PubChem BioAssay AID1671190 (National Center for Advancing Translational Sciences (NCATS), 2021).
The campaign covered roughly 580,000 compounds. About 6,100 (1.1%) were called active. Inconclusive results, whose numbers are uncertain, are shown with a selection of clear calls. Calls come from the whole dose curve; as a rule, active = well fitted inhibition curve with a large enough effect; inconclusive = small, poorly fitted or top-dose-only effect, or another doubt; inactive = no such curve, though single readings can be large or run the other way. A potency beside an inconclusive call is a rough fit, not a confirmed value.
% is set by controls: 0 for no effect and ±100 for the full control effect; potency is the fitted concentration of half-maximal effect.

Amino acid sequences for entries named in this document (tags omitted). A change or cut given only in a name is not applied to a line headed by its entry.
UniProt P18054: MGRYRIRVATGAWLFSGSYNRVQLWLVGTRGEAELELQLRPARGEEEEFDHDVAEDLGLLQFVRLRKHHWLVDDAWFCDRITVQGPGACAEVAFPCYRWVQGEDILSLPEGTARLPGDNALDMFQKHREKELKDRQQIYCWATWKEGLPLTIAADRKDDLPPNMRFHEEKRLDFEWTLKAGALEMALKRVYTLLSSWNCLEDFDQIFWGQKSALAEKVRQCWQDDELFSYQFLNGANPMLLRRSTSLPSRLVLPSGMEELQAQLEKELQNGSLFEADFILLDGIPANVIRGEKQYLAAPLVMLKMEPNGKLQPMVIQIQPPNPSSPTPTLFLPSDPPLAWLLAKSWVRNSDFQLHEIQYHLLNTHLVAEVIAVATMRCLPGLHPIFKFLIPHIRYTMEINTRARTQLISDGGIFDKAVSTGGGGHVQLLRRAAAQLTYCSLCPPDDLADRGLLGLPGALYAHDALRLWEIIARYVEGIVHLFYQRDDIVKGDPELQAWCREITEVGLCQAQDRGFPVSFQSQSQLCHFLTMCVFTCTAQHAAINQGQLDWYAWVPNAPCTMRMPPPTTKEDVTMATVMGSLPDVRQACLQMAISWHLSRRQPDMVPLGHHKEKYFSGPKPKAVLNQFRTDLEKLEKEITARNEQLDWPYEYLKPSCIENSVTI

These compounds were tested against Polyunsaturated fatty acid lipoxygenase ALOX12 (Homo sapiens) (UniProt P18054) (assay: Primary qHTS assay for inhibitors of human arachidonate 12S-lipoxygenase (ALOX12): Round 2). Conditions: purified 12hLO, xylenol orange hydroperoxide absorbance; activity change, negative = inhibition: at 108 µM (top of the series) unless noted.
Method in brief: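 Purified human 12hLO (150 nM final) in 25 mM Hepes, 0.01% Triton X-100, pH 7.0 was preincubated 15 min at room temperature with compound. Then 40 uM arachidonic acid was added, 30 min. Hydroperoxide was read by Fe-XO absorbance ratio 573/405 nm.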
CCOC(=O)/C(C#N)=C/c1ccc(-c2ccc(C)cc2)o1 was tested, and the activity change, negative = inhibition was inconclusive: -35.9% [inhibitor].
With C#CCNC(=O)c1cc(-c2cnccc2Cl)c2cccn2n1 the Potency was inconclusive: 63.1 µM [inhibitor, partial curve, poor fit].
N#Cc1ccc(CN2CCC3(COc4ccccc4C(=O)N3)C2)cc1 (stereo unspecified) was tested, and the Potency was inconclusive: 25.1 µM [inhibitor, full curve].
With O[C@@H]1CN(Cc2ccc(-n3cccn3)cc2)CC[C@H]1c1ccc(F)cc1 the Potency was inconclusive: 39.8 µM [inhibitor, partial curve].
With Cc1ccc(N2C(S)=C(C#N)C(=O)NC23CCCCC3)cc1 the Potency was inconclusive: 5.62 µM [inhibitor, full curve, poor fit].
For CC(=O)N1CCN(S(=O)(=O)c2ccc(C(=O)NCc3ccc(OCC(F)(F)F)cc3)cc2)CC1, the Potency was inconclusive: 112 µM [inhibitor, single point].
With CCCNC(=O)c1ccccc1NS(=O)(=O)c1ccc2c(c1)OCCO2 the Potency was inconclusive: 112 µM [inhibitor, single point].
For CCc1cccc(NC(=O)Cn2nc3c4cc(F)ccc4n(Cc4cccc(C)c4)cc-3c2=O)c1, the Potency was inconclusive: 112 µM [inhibitor, partial curve, poor fit].
In the case of N#CCCN(C(=O)Cn1nc(C(=O)O)c2ccccc2c1=O)c1ccccc1, the Potency is reported as inconclusive: 100 µM [inhibitor, partial curve, poor fit].
For CCCNC(=O)c1cnc2c(-c3ccc(OCC)c(OCC)c3)c(C)nn2c1-c1ccccc1, the Potency was inconclusive: 39.8 µM [inhibitor, partial curve, poor fit].
With Cc1onc(-c2c(Cl)cccc2Cl)c1C(=O)Nc1ccc(Cl)cn1 the “activity change, negative = inhibition” value was inactive: 13.1%.
For C=C1CN(Cc2ccccc2)S(=O)(=O)c2ccccc21, the Potency was inconclusive: 44.7 µM [inhibitor, partial curve, poor fit].
With COc1ccc(-c2cc(C[C@H]3CNCC[C@H]3CC(=O)NCc3cccs3)no2)cc1 the Potency was inconclusive: 31.6 µM [inhibitor, full curve, poor fit].
With CC1CCN(CC(=O)Nc2cccc(C(=O)Nc3cccc(C(F)(F)F)c3)c2)CC1 the Potency was inconclusive: 7.08 µM [inhibitor, full curve].
In the case of COC(=O)[C@@]1(Cc2ccc(F)cc2)[C@H]2c3cc(C(=O)N(C)C)n(CC4CC4)c3C[C@H]2CN1C(=O)c1ccccc1, the “activity change, negative = inhibition” value is reported as inactive: -5.87%.
With CCc1ccc(CNC(=O)c2ccc3c(c2)N(CC)C2CCCCN2C3=O)cc1 (stereo unspecified) the Potency was inconclusive: 79.4 µM [inhibitor, single point].
CCN1C(=NCCOC)N[C@@H](c2cccc(C(F)(F)F)c2)C(C(=O)OC)=C1C was tested, and the Potency was inconclusive: 50.1 µM [inhibitor, partial curve, poor fit].
In the case of CCN(CCCNC(=O)Cn1ncc2c([nH]c3ccc(C)cc32)c1=O)Cc1ccccc1, the Potency is reported as inconclusive: 100 µM [inhibitor, partial curve, poor fit].
For NNCCc1ccccc1F, the “activity change, negative = inhibition” value was inactive: -43.9%.
For C[C@@H]1CN([C@H](C)CO)C(=O)c2c(c3ccccc3n2C)-c2ccccc2CO[C@@H]1CN(C)C(=O)CCN(C)C, the Potency was inconclusive: 112 µM [inhibitor, single point].
For CCc1cccc2c(C(=O)Cn3cc(S(=O)(=O)N4CCCC4)ccc3=O)c[nH]c12, the “activity change, negative = inhibition” value was inactive: -11.1%.
With CCOc1ccc(O)c(C=NC2CCCC2)c1 the Potency was inconclusive: 44.7 µM [inhibitor, partial curve, poor fit].
For Cc1cnc(NC(=O)COc2cccc3c2OC(C)(C)C3)s1, the Potency was inconclusive: 3.16 µM [inhibitor, partial curve, poor fit].
In the case of COc1ccc(NCc2ccc([N+](=O)[O-])s2)c(OC)c1, the Potency is reported as inconclusive: 28.2 µM [inhibitor, single point].
With CCCS(=O)(=O)N1CCN(S(=O)(=O)c2ccccc2[N+](=O)[O-])CC1 the “activity change, negative = inhibition” value was inactive: 12.2%.
In the case of COc1ccc(OCC(O)CN2CCN(c3ncccn3)CC2)cc1 (stereo unspecified), the Potency is reported as inconclusive: 158 µM [inhibitor, partial curve, poor fit].
With Cc1cccc(NC(=O)CSc2nc3ccccc3o2)c1 the “activity change, negative = inhibition” value was inactive: 0%.
For Cc1nn(C(=O)c2cc([N+](=O)[O-])ccc2Cl)c(C)c1Br, the Potency was inconclusive: 63.1 µM [inhibitor, partial curve, poor fit].
In the case of Cc1cccc(CS(=O)(=O)Cc2ccc(C#N)cc2)c1, the “activity change, negative = inhibition” value is reported as inactive: -71.7%.
With CCn1cc(-c2c(-c3ccccc3)ncn2CC(=O)O)cn1 the Potency was inconclusive: 11.2 µM [inhibitor, partial curve, poor fit].
Cc1nn(-c2ccc(F)cc2)c(Oc2cccc(F)c2)c1CCC(=O)N1CCSCC1 was tested, and the Potency was inconclusive: 89.1 µM [inhibitor, single point].
In the case of O=C(CNc1ccc(Cl)cc1)NNC(=S)NCc1ccccc1, the Potency is reported as inconclusive: 50.1 µM [inhibitor, partial curve, poor fit].
CCCC(=O)c1ccc(N2CCCCCC2)c(F)c1 was tested, and the “activity change, negative = inhibition” value was inactive: 10.9%.
In the case of O=C(CSc1nnc(-c2cccc(F)c2)c(-c2cccc(F)c2)n1)NC1CCCCC1, the Potency is reported as inconclusive: 89.1 µM [inhibitor, partial curve, poor fit].
Cc1ccc(-c2csc(Nc3ccc(C(=O)O)c(O)c3)n2)cc1 was tested, and the Potency was inconclusive: 39.8 µM [inhibitor, partial curve, poor fit].
With CC(=O)Nc1cccc(OCc2ccccc2)c1 the Potency was inconclusive: 0.501 µM [inhibitor, full curve, poor fit].
With CCOc1ccc2c(c1)c(=O)c(S(=O)(=O)c1ccc(CC)cc1)cn2C the Potency was inconclusive: 89.1 µM [inhibitor, single point].
O=C(C1CCC(CNc2c(N3CCOCC3)c(=O)c2=O)CC1)N1CCN(c2ccccc2)CC1 (stereo unspecified) was tested, and the Potency was inconclusive: 112 µM [inhibitor, single point].
With c1cnc(-c2nc(CC3CCCNC3)no2)cn1 (stereo unspecified) the “activity change, negative = inhibition” value was inactive: 47.6%.
CCOC(=O)C1CCCN(C(=O)c2cc(-c3ccco3)nc3ccccc23)C1 (stereo unspecified) was tested, and the Potency was active: 8.91 µM.
COC[C@@H]1CN(c2ncccn2)C[C@H]1C(=O)NCc1ccccn1 was tested, and the “activity change, negative = inhibition” value was inactive: 89.8%.
